Assay results taken from PubChem BioAssay AID463116 (University of Pittsburgh Molecular Library Screening Center, 2010).
The list shows a part of the results. Shown are side measurements of this screen, not its main read-out; they come without a call. The list favours compounds with an active or inconclusive main result.

Test: dynein cargo transport inhibitors, GR-EGFP translocation, confirmation, imaging, high-content imaging, GR-EGFP cells (AID 463116)
Conditions: 3617.4 GR-EGFP nuclear translocation imaging, dexamethasone-induced; measured here: cell count per field; at 20 µM
Work on Cc1cc(C)c2c(=O)n(CC(=O)NCCCN3CCN(c4ccccc4F)CC3)sc2n1 yielded a z-score of 0.701.
In the case of Cc1ccc(C(=O)/C=C/c2ccccc2[N+](=O)[O-])cc1, the z-score is reported as 0.256.
In the case of O=C(/C=C/c1ccc(F)cc1)c1ccccc1Br, the z-score is reported as 0.211.
With COc1ccc(-c2cc(C(F)(F)F)nc(S(=O)(=O)CCCC(=O)Nc3cccnc3Cl)n2)cc1OC the z-score was 0.121.
With COc1cc(C2Oc3ccccc3C=C2[N+](=O)[O-])cc(OC)c1OC (centres undefined) the z-score was -0.401.
Cn1c(=O)[nH]c(=O)c2c1nc([N+](=O)[O-])n2Cc1ccccc1 showed a z-score of -0.66.
CCCc1nc2oc3c(Cl)ncnc3c2c2c1CCCC2 showed a z-score of 0.363.
In the case of O=C1/C(=C/c2ccccc2[N+](=O)[O-])COc2ccccc21, the z-score is reported as -1.01.
For Cc1ccc(SC(=O)c2c([N+](=O)[O-])c(C)nn2C)cc1, the z-score was 0.25.
Compound COC1=C(C)C(O)=C(C(=O)/C=C/c2ccccc2)C(=O)C1(C)C has a z-score of 0.649.
With Cc1ccc(C(=O)Oc2oc(-c3ccco3)nc2C=Nc2ccc(Cl)cc2)cc1 the z-score was 0.107.
For CS(=O)(=O)c1ccc(C(=O)OCc2nnc(-c3ccccc3)o2)cc1[N+](=O)[O-], the z-score was -1.01.
Cc1ccc(/C=C2\CCC3=C2OC(N)=C(C#N)C3c2ccc(C)cc2)cc1 (centres undefined) showed a z-score of 0.5.
Work on Cc1cccc2cc3c(N)c(C(=O)N4CCc5ccccc54)sc3nc12 yielded a z-score of -0.276.
O=C(CCl)c1ccc2c(c1)CCN2C(=O)C1CC1 gave a z-score of -1.12.
CN1C(=S)N(c2cccnc2)C(=O)/C1=C\c1ccc(C(C)(C)C)cc1 gave a z-score of -0.699.
For C#CC(=O)N(c1cccc(OC)c1)C(C(=O)NC1CCCC1)c1cccs1 (centres undefined), the z-score was -0.134.
Compound COc1cc2c(cc1OC)C(Cc1ccc(O)cc1)N(C)CC2 (centres undefined) has a z-score of -0.255.
Cc1cc(C)nc(Sc2ncnc(N)c2[N+](=O)[O-])n1 showed a z-score of 0.0701.
Work on CC1(C)CC(=O)C2=C(C1)OC(N)=C(C#N)C2C#Cc1ccccc1 (centres undefined) yielded a z-score of 0.246.
With COC(=O)c1scc(C)c1NC(=O)/C=C/C(=O)O the z-score was -0.119.
In the case of CC1C/C(=C/c2ccco2)C(=O)/C(=C/c2ccco2)C1 (centres undefined), the z-score is reported as -0.067.
With CCCCC1OC2(C)OC(=N)C1(C#N)C(C#N)(C#N)C2c1ccccc1 (centres undefined) the z-score was 0.129.
With CCN(C(=O)c1coc(=O)c(Br)c1)c1ccc2c(c1)OCO2 the z-score was 0.543.
In the case of Cc1ccc(-c2cn3nc(-c4ccccc4)c(-c4ccccc4)nc3n2)cc1, the z-score is reported as 0.732.
CCOC(=O)c1nc(S(C)(=O)=O)ncc1Cl showed a z-score of -0.326.
Compound Cc1cc(Sc2ncnc(N)c2[N+](=O)[O-])ncn1 has a z-score of -0.444.
O=C(O)c1ccc(NC2=C(Cl)C(=O)c3ccccc3C2=O)cc1 gave a z-score of 0.305.
For CCOC(=O)c1c(C)oc2c(F)c(F)c(F)c(F)c2c1=O, the z-score was 0.838.
Compound COC(=O)c1cc(=O)n(-c2ccccc2)c(=Nc2ccccc2)s1 has a z-score of 0.702.
Work on N=c1n(Cc2ccccc2)c2ccccc2n1CC(O)COc1ccc(Cl)cc1Cl (centres undefined) yielded a z-score of -5.43.
With CNCc1ccccc1Sc1cc(O)ccc1O the z-score was -0.609.
With CCOC(=O)c1c(-c2ccc(C)o2)csc1NC(=O)CSc1nncs1 the z-score was 0.142.
Compound CCC1(C)CC2(CCCN(CCC(=O)c3ccccc3)C2)CCO1 (centres undefined) has a z-score of 1.16.
Work on Cc1ccsc1/C=C/C1=Cc2c(sc(NC(=O)CSc3n[nH]c(N)n3)c2C#N)C(C)(C)C1 yielded a z-score of 0.688.
Cc1cnc(NC(=O)c2nn(C)cc2[N+](=O)[O-])s1 gave a z-score of 0.237.
COc1ccc(C(=O)CCN2CCN(c3ccccc3OC)CC2)cc1 gave a z-score of -0.143.
For COc1ccccc1N1C(=O)C=C(Sc2nc(C)cc(C)n2)C1=O, the z-score was -0.451.
In the case of Clc1nc(CN2CCCCC2)nc2sc3c(c12)CCCC3, the z-score is reported as 0.497.
COC(=O)c1ccc2c(c1)C(C)(C)C(/C=C/c1ccc(O)cc1)=[N+]2C gave a z-score of -0.0884.
With Cc1cc(C)c(C)c(S(=O)(=O)ON2C(=O)c3ccccc3C2=O)c1C the z-score was 0.0888.
S=c1sc2c(Cl)ncnc2n1-c1ccccc1 gave a z-score of -0.0932.
Work on O=C(CCl)N(Cc1ccccc1)c1ccccc1 yielded a z-score of -0.266.
N#C/C(=C\c1cccs1)C(=O)c1ccccc1Cl showed a z-score of 0.723.
With Cc1ccc(/C=C/C(=O)NCC2COc3ccccc3O2)o1 (centres undefined) the z-score was 0.0554.
In the case of N#C/C(=C/c1ccc(N2CCCCC2)o1)C(=O)Nc1ccc2ccccc2c1, the z-score is reported as 0.256.
Compound COc1ccc(-c2nnc(Sc3nc4ccccc4o3)c3ccccc23)cc1 has a z-score of 0.00171.
In the case of O=C(CCl)N(c1ccc(Cl)cc1)c1c[nH]c2ccccc12, the z-score is reported as -0.446.
Compound COc1ccc(-n2nc(C#N)c(Cl)cc2=O)cc1 has a z-score of -0.444.
Compound N=c1oc2c3c4c(cc2cc1C(=O)Nc1ccccc1)CCCN4CCC3 has a z-score of -0.167.
With COc1cccc(C(=O)Oc2ccccc2/C=C\C(=O)c2cc3ccccc3o2)c1 the z-score was 0.176.
With Cc1nc2ccccc2c(=O)n1/N=C/c1ccc([N+](=O)[O-])o1 the z-score was -0.315.
CC(/C=N/n1c(COc2ccccc2)n[nH]c1=S)=C\c1ccco1 gave a z-score of 0.886.
For COC/C=C/C1=CC2=CC(=O)C(C)(OC(=O)c3cnc4ccccc4n3)C(=O)C2=CN1Cc1ccc(OC)cc1 (centres undefined), the z-score was -0.106.
CCCCN(C)C1=CC2=CC(=C(C#N)C#N)CCC2CC1 (centres undefined) showed a z-score of 0.124.
COC(=O)c1cn(NC(=O)c2cc([N+](=O)[O-])ccc2F)c(=O)c2ccccc12 showed a z-score of 0.622.
For O=[N+]([O-])c1ccc(C2=NN(c3ccccc3)C(c3ccco3)C2)cc1 (centres undefined), the z-score was 0.737.
Compound CN(c1ccccc1)c1ccc(/C=C/[N+](=O)[O-])cc1 has a z-score of -3.79.
For N#C/C(C(=O)c1ccccc1)=C1/SC=C(N)N1c1ccccc1, the z-score was 0.378.
Cc1occc1-c1nnc(SCC(=O)N2CCc3ccccc32)o1 showed a z-score of 0.189.
For CCCN1C/C(=C/c2ccc3c(c2)OCO3)C(=O)/C(=C/c2ccc3c(c2)OCO3)C1, the z-score was 0.569.
Work on Cc1nn(C)c(C(=O)Sc2cccc(Cl)c2)c1[N+](=O)[O-] yielded a z-score of -0.182.
COc1ccc(N=CC2=C(Nc3ccc(OC)cc3)c3c(C)nn(-c4ccccn4)c3CC2)cc1 gave a z-score of 0.335.
Work on N#CC12COC3(CCCCC3C1(C#N)C#N)OC2=N (centres undefined) yielded a z-score of -0.173.
For CCOC(=O)C(=Cc1ccc(OCc2ccc([N+](=O)[O-])cc2)c(OC)c1)C(=O)OCC, the z-score was -0.171.
In the case of CCn1nc(C)cc1C(=O)Sc1cccc(Cl)c1, the z-score is reported as 0.375.
Work on O=C1C2C3C=CC(CO)(O3)C2C(=O)N1c1ccc(-c2ccccc2)cc1 (centres undefined) yielded a z-score of -0.983.
CCOC(=O)C1=C(SCC)c2cc3c(n2C1=O)CCCC3 showed a z-score of 0.393.
Cc1ccc(-c2nc(NC(=O)c3nn(C)cc3[N+](=O)[O-])sc2C)cc1 gave a z-score of 0.0659.
